# Reference: PubChem BioAssay AID2685 (National Center for Advancing Translational Sciences (NCATS), 2010)
# This is one part of the list. Shown are side measurements of this screen, not its main read-out; they come without a call. The list favours compounds with an active or inconclusive main result. The note in brackets gives the kind of curve behind each potency; many fits are weak.
# Assay: qHTS Assay for Lipid Storage Modulators in Drosophila S3 Cells;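 as to cell number change: cells counted by Cell Tracker Red CMTPX staining in the red channel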
# Conditions: BODIPY lipid droplet fluorescence, 18-24 h; for cell number change: measured here: cell count max response, cells fed with added oleic acid
# How it was run: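 Laser-scanning cytometry quantifies lipid droplet accumulation (500–530 nm total intensity; droplet/cell object ratio) in oleic acid-fed (400 uM added) Drosophila S3 cells treated with a concentration series. 20 uM Triacsin C defined 100% inhibition.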
# [1] = measured here: cell number channel AC50, cells fed with added oleic acid
# [2] = measured here: lipid fluorescence (Fed channel) AC50, cells fed with added oleic acid
SMILES,cell number change,AC50 [1],AC50 [2]
Cc1ncc([N+](=O)[O-])n1CC(=O)Nc1ccccc1,-19.1%,"3.66 µM [falling, single point]","11.6 µM [falling, partial curve]"
Cc1c(-c2ccc(O)cc2)nc2nc(-c3ccccc3)c(-c3ccccc3)nn12,5.39%,,"32.6 µM [falling, partial curve]"
CCOC(=O)c1ccc(NC(=O)CSc2nc3c(c(=O)n2C)SC(C)C3)cc1 (stereo not drawn),-36.8%,"20.6 µM [falling, single point]",
O=C(Cn1sc2ccccc2c1=O)N1CCN(C(=O)c2ccco2)CC1,,"0.92 µM [rising, full curve]",
CC(O)[C@H]1CC[C@H]2[C@@H]3CC[C@H]4C[C@H](O)CC[C@]4(C)[C@H]3[C@H](O)C[C@]12C (stereo partly drawn),4.97%,,"13 µM [falling, partial curve, poor fit]"
Cc1ccc(S(=O)(=O)CCC(=O)OCC(=O)N(C)CC(=O)Nc2ccc(F)cc2)cc1,-4.42%,,
COc1cc(/C=N/n2c(-c3ccc4c(c3)NC(=O)CO4)csc2=Nc2cccc(C)c2)ccc1O,-23.4%,,"29.1 µM [falling, single point]"
O=C(NCCOc1nc(N2CCOCC2)nc(N2CCOCC2)n1)Nc1ccc(Cl)cc1,,,"1.46 µM [rising, partial curve]"
CCOc1ccccc1-n1c(SCC(=O)NCc2ccco2)nnc1-c1ccncc1,8.38%,,"1.3 µM [rising, full curve, poor fit]"
O=C(NN1CCOCC1)c1cc(-c2ccccc2)nc2ccccc12,23.3%,,"29.1 µM [rising, single point]"
O=C(c1ccccc1)c1cc(Cl)ccc1N1C(=O)C=CC1=O,-56.9%,"10.3 µM [falling, partial curve]",
CCOC(=O)c1cn(CC)c2cc3c(cc2c1=O)OCO3,-36.4%,"0.206 µM [falling, full curve]","0.206 µM [falling, full curve]"
COc1ccc2oc(C(=O)OC(C)C(=O)NCc3ccccc3)c(C)c2c1 (stereo not drawn),-8.8%,,"20.6 µM [falling, single point]"
COc1ccc(C=Nc2cccc3c(=O)[nH][nH]c(=O)c23)c2ccccc12,124%,"8.2 µM [rising, partial curve]","5.8 µM [rising, partial curve]"
CCN(CC)S(=O)(=O)c1ccc(N2CCOCC2)c(NC(=O)c2ccc(N3CCCC3=O)cc2)c1,,"6.51 µM [falling, single point]",
Cc1ccc(-c2cc3ccccc3nc2N)cc1,-43%,"29.1 µM [falling, single point]","29.1 µM [falling, single point]"
Cc1n[nH]c(=O)nc1NCCc1ccccc1,6.15%,,"0.82 µM [falling, single point]"
Cc1nc2ccc(F)cc2cc1C(=O)Nc1ccc(Cl)c(Cl)c1,-5.84%,,"20.6 µM [falling, single point]"

SMILES,cell number change,AC50 [1],AC50 [2]
COc1ccccc1CCc1nnc(CCC(=O)NCCCOc2cccnc2)o1,9.41%,,"6.51 µM [rising, single point]"
Cc1ccc(N2C(=O)NC(NC(=O)c3ccc(Cl)cc3)(C(F)(F)F)C2=O)cc1 (stereo not drawn),-11.7%,,"9.2 µM [rising, partial curve]"
O=C(COc1cccc(Br)c1)NN=C1c2ccccc2-c2ccccc21,-34.7%,"18.4 µM [falling, single point]",
CC(=O)N/N=C(\N)c1nonc1N,,,"5.8 µM [falling, full curve, poor fit]"
Cc1ccc(C(=O)NCCC(=O)N2CCC3(CC2)NCCc2[nH]cnc23)cc1C,4.58%,,"29.1 µM [rising, single point]"
CC(C)c1ccc(C2=C(O)c3ccccc3C(=O)C2=O)cc1,24%,"2.31 µM [rising, full curve, poor fit]","16.4 µM [rising, partial curve, poor fit]"
CC(C)(Oc1ccc(Cl)cc1)C(=O)NCc1n[nH]c(=O)c2ccccc12,8.38%,,"29.1 µM [falling, single point]"
O=[N+]([O-])c1ccc2c(c1)C(N1CCOCC1)/C(=C/COc1ccc(Cl)cc1Cl)O2 (stereo not drawn),,,"6.51 µM [rising, single point]"
COc1cc(C)c(S(=O)(=O)Nc2ccccc2F)cc1C,11.3%,,"2.59 µM [rising, partial curve]"
O=C(c1ccco1)c1cn(CC(=O)N2CCCCC2)c2ccccc12,-20.7%,,"29.1 µM [falling, single point]"
O=C(NCc1ccc2c(c1)OCO2)C1CC(=O)N(CCc2ccc(F)cc2)C1 (stereo not drawn),5.46%,,"6.51 µM [falling, single point]"
Cc1nc(C)c(-c2csc(Nc3ccc(S(N)(=O)=O)cc3)n2)s1,8.79%,,"29.1 µM [falling, single point]"
Cc1ccc(C)c(S(=O)(=O)C(C#N)c2nc3ccccc3nc2N2CC(C)OC(C)C2)c1 (stereo not drawn),42.3%,"1.84 µM [rising, full curve, poor fit]","1.84 µM [rising, partial curve]"
Cc1cc(C)cc(COn2ccnc2)c1,18.9%,"0.651 µM [rising, full curve, poor fit]","2.59 µM [rising, full curve]"
COc1ccc(NC(=O)c2coc(C)c2)cc1,18.4%,"0.146 µM [rising, full curve, poor fit]",
O=C(CSc1nnc(NC(=O)C2CC(=O)N(c3ccc(F)cc3)C2)s1)NC1CCCC1 (stereo not drawn),-19.8%,"2.59 µM [falling, full curve, poor fit]",
CCOC(=O)c1sc2ncn(/N=C/c3ccc(O)cc3)c(=O)c2c1C,-8.76%,"1.16 µM [rising, single point]","1.16 µM [rising, single point]"
Cn1c(SCc2nnc(-c3ccc(F)cc3)o2)nnc1C1COc2ccccc2O1 (stereo not drawn),,,"4.11 µM [rising, single point]"

# Given with bars between the fields: eight of the compounds above
SMILES | cell number change | AC50 [1] | AC50 [2]
COc1ccccc1CCc1nnc(CCC(=O)NCCCOc2cccnc2)o1 | 9.41% |  | 6.51 µM [rising, single point]
Cc1ccc(C(=O)NCCC(=O)N2CCC3(CC2)NCCc2[nH]cnc23)cc1C | 4.58% |  | 29.1 µM [rising, single point]
CC(C)c1ccc(C2=C(O)c3ccccc3C(=O)C2=O)cc1 | 24% | 2.31 µM [rising, full curve, poor fit] | 16.4 µM [rising, partial curve, poor fit]
O=[N+]([O-])c1ccc2c(c1)C(N1CCOCC1)/C(=C/COc1ccc(Cl)cc1Cl)O2 (stereo not drawn) |  |  | 6.51 µM [rising, single point]
COc1cc(C)c(S(=O)(=O)Nc2ccccc2F)cc1C | 11.3% |  | 2.59 µM [rising, partial curve]
O=C(c1ccco1)c1cn(CC(=O)N2CCCCC2)c2ccccc12 | -20.7% |  | 29.1 µM [falling, single point]
Cc1nc(C)c(-c2csc(Nc3ccc(S(N)(=O)=O)cc3)n2)s1 | 8.79% |  | 29.1 µM [falling, single point]
O=C(CSc1nnc(NC(=O)C2CC(=O)N(c3ccc(F)cc3)C2)s1)NC1CCCC1 (stereo not drawn) | -19.8% | 2.59 µM [falling, full curve, poor fit] | 
